Data source: PubChem BioAssay AID1224826 (NIAID, 2016)

- Screen: 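Genes that change LPS-induced Tnf promoter activity in mouse macrophages when knocked down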 (primary screen)
- Cells: RAW264.7 G9 macrophages from mouse bearing reporters for p65 (GFP) and the Tnf promoter (mCherry)
- Reagents: siRNA pool against mouse genes, 100 nM
- Time to read-out: 16 h of LPS stimulation, after 2 days of siRNA transfection
- Conditions: bacterial lipopolysaccharide (Salmonella minnesota R595), 10 ng/ml
- Measured: 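Nuclear mCherry signal of the Tnf promoter reporter measured by imaging after background removal, scaled to each plate median and turned into robust z-scores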
- Direction: Tnf reporter robust z-score: higher = stronger Tnf promoter reporter signal after LPS
- Call rule: 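a well counts as active at a score of -1.3 or below (Tlr4 knock-down control median) or above 3 (raised signal); controls and wells holding fewer than 50 cells are excluded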
- Calls: active = Tnf reporter clearly lowered or raised; inactive = no clear change in Tnf reporter
This is one part, drawn at random, of about 17,000 reagents tested. About 1,110 of them (6.6%) were called active. 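Active means lowered or raised reporter signal; replicate intensities are raw and not normalised per plate.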 Further read-outs or replicates are left out here. Reagent sequences are not shown.

P4ha2 scored fewer than 50 cells in well fewer than 50 cells per well; well left out of calls; inactive. For Dpep3, the entry reads Tnf reporter robust z-score 0.3; fewer than 50 cells in well enough cells in well; inactive. Ctbp1 scored Tnf reporter robust z-score -0.73; fewer than 50 cells in well enough cells in well; inactive. Supt4b showed Tnf reporter robust z-score -1.93; fewer than 50 cells in well enough cells in well; active. Spink10 gave Tnf reporter robust z-score -0.18; fewer than 50 cells in well enough cells in well; inactive. Lsm11 showed Tnf reporter robust z-score 0.97; fewer than 50 cells in well enough cells in well; inactive.

With knock-down of Plpbp, the screen gave Tnf reporter robust z-score 1.85; fewer than 50 cells in well enough cells in well; inactive. For Med22, the values are Tnf reporter robust z-score -0.18; fewer than 50 cells in well enough cells in well; inactive. Depletion of A830054O04Rik gave: Tnf reporter robust z-score -0.83; fewer than 50 cells in well enough cells in well; inactive. Myh7 showed Tnf reporter robust z-score -0.81; fewer than 50 cells in well enough cells in well; inactive. Or8d4 showed Tnf reporter robust z-score 1.14; fewer than 50 cells in well enough cells in well; inactive. Knock-down of Rap1a gave: Tnf reporter robust z-score 2.11; fewer than 50 cells in well enough cells in well; inactive.
